# Starred links: 1 amine or outer side, 2 acyl side, 3 side chain; linkers in the order of their positions; H or OH if unused. Non-standard residues stand in square brackets, D forms with d. Residues, ends and D or L forms follow the SMILES beside them. *: point of attachment. DOTA = O=C(O)CN1CCN(CC(=O)O)CCN(CC(=O)*)CCN(CC(=O)O)CC1; X1 = C[C@@H](C(=O)[*:2])n1cc([C@@H](CCC(=O)O)N[*:1])nn1; X2 = O=C(Cn1cc([C@H](Cc2ccc(O)cc2)N[*:1])nn1)[*:2]; Nle = CCCC[C@H](N)C(=O)O
# Legend:
# [1] = tested on: xenografts of A431-CCK2R cells; assay: biodistribution in mice with CCK2R-positive xenografts; format: in vivo, female CD1-nu mice; details: 4 h p.i.; two-way ANOVA, Bonferroni
# Protocol: Procedures for biodistribution studies with ^177Lu-labeled conjugates (10 pmol, 100 µL, 0.1 µM in PBS, 0.5 MBq, 1 µg/kg) in female CD1-nu mice with xenografts of A431-CCK2R cells at 1, 4, and 24 h p.i., as well as blocking experiments at 4 h p.i. with a 6000-fold excess of minigastrin have been reported previously and were followed without modifications. Statistical analysis was performed via GraphPad Prism using two-sided analysis of variance. n = 4 animals per group.
# [2] = general procedure: Fmoc solid-phase peptide synthesis; HATU, DIPEA; details: whole synthesis
Molecule,"Stomach: reduction of uptake by co-injection of excess minigastrin, Significant? [1]","Tumor: reduction of uptake by co-injection of excess minigastrin, Significant? [1]",isolated yield [2] [%]
"CCCC[C@H](NC(=O)[C@H](Cc1c[nH]c2ccccc12)NC(=O)Cn1cc([C@H](Cc2ccc(O)cc2)NC(=O)[C@H](C)n2cc([C@@H](CCC(=O)O)NC(=O)[C@@H](CCC(=O)O)NC(=O)[C@@H](CCC(=O)O)NC(=O)[C@@H](CCC(=O)O)NC(=O)[C@@H](CCC(=O)O)NC(=O)[C@@H](CCC(=O)O)NC(=O)CN3CCN(CC(=O)O)CCN(CC(=O)O)CCN(CC(=O)O)CC3)nn2)nn1)C(=O)N[C@@H](CC(=O)O)C(=O)N[C@@H](Cc1ccccc1)C(N)=O [NMG 3, DOTA-(DGlu)6 -Ψ[Tz]-Ala-Tyr-Ψ[Tz]-Gly-Trp-Nle-Asp-Phe-NH2] ({DOTA}-[dE][dE][dE][dE][dE][X1][X2]W[Nle]DF-NH2)",Yes,Yes,
DOTA-(DGlu)5-DGlu-Ψ[Tz]-Ala-Tyr-Ψ[Tz]-Gly-Trp-Nle-Asp-Phe-NH2,,,11.5
HELM PEPTIDE1{[O=C(O)CN1CCN(CC(=O)O)CCN(CC(=O)[*:2])CCN(CC(=O)O)CC1].[dE].[dE].[dE].[dE].[dE].[dE].A.Y.G.[CCCC[C@@H](C(=O)[*:2])n1cc([C@H](Cc2c[nH]c3ccccc23)N[*:1])nn1].D.F.[am]}$$$$V2.0 (SMILES CCCC[C@@H](C(=O)N[C@@H](CC(=O)O)C(=O)N[C@@H](Cc1ccccc1)C(N)=O)n1cc([C@H](Cc2c[nH]c3ccccc23)NC(=O)CNC(=O)[C@H](Cc2ccc(O)cc2)NC(=O)[C@H](C)NC(=O)[C@@H](CCC(=O)O)NC(=O)[C@@H](CCC(=O)O)NC(=O)[C@@H](CCC(=O)O)NC(=O)[C@@H](CCC(=O)O)NC(=O)[C@@H](CCC(=O)O)NC(=O)[C@@H](CCC(=O)O)NC(=O)CN2CCN(CC(=O)O)CCN(CC(=O)O)CCN(CC(=O)O)CC2)nn1),,,20.9
HELM PEPTIDE1{[O=C(O)CN1CCN(CC(=O)O)CCN(CC(=O)[*:2])CCN(CC(=O)O)CC1].[dE].[dE].[dE].[dE].[dE].[dE].A.[O=C(Cn1cc([C@H](Cc2ccc(O)cc2)N[*:1])nn1)[*:2]].W.[Nle].D.F.[am]}$$$$V2.0 (SMILES CCCC[C@H](NC(=O)[C@H](Cc1c[nH]c2ccccc12)NC(=O)Cn1cc([C@H](Cc2ccc(O)cc2)NC(=O)[C@H](C)NC(=O)[C@@H](CCC(=O)O)NC(=O)[C@@H](CCC(=O)O)NC(=O)[C@@H](CCC(=O)O)NC(=O)[C@@H](CCC(=O)O)NC(=O)[C@@H](CCC(=O)O)NC(=O)[C@@H](CCC(=O)O)NC(=O)CN2CCN(CC(=O)O)CCN(CC(=O)O)CCN(CC(=O)O)CC2)nn1)C(=O)N[C@@H](CC(=O)O)C(=O)N[C@@H](Cc1ccccc1)C(N)=O),,,19.6

# — article PMC8199036 (Cancers, 2021)
